The record followed here is US20200197532A1.

Results are given in words; binding and its absence hold for the method and conditions named. Binding can be weak; no strength is given.

The test has as its target Pig type II collagen (pig). The test is described as follows: ELISA on type II collagen.

B1: E4 monoclonal antibody to type II collagen (MabCII, clone E4-D4) (antibody, mouse IgG2a, kappa, V domains shown)
VH: EVQLVESGGGLVKPGGSLKVSCEASGFTFSDYGMHWVRQAPEKGLEWVAYISSVSSTIYYADTVEGRFTISRDNVRNTLFLQMTSLRSEDTAMYYCAREGWLPLFAFWGQGTLVTVSA
VL: DIVLTQSHKFMSTSVGDRVSITCKASQDVSITVAWYQQKPGQSPKLLIYSASYRNPGVPDRFTGSGSGTDFNFTISTVQAEDLAVYYCQQYYIIPWTFGGGTKLEFKR
In the case of B1, the binding result is on record as “binds”.
